PubChem BioAssay AID1259425 – University of Nebraska Medical Center, 2018
Here is one part, drawn at random, of about 14,000 reagents tested. Not given: the time to read-out.

- Purpose: 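Seek colon cancer weak points whose silencing resembles KSR1 loss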 (primary screen)
- Cells: HCT116 human colon cancer cells
- Reagents: siRNA pool against human genes, 50 nM siRNA
- Detection: 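mRNA of six signature genes measured together by branched-DNA assay after 50 nM siRNA pool, blank removed, divided by geometric mean of two housekeeping genes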
- Reading the numbers: BNIP3L mRNA: higher = more BNIP3L transcript after knockdown; NDRG1 mRNA: higher = more NDRG1 transcript after knockdown; BNIP3 mRNA: higher = more BNIP3 transcript after knockdown; ALDOC mRNA: higher = more ALDOC transcript after knockdown; ACSL5 mRNA: higher = more ACSL5 transcript after knockdown

| target gene | BNIP3L mRNA, set 1 | NDRG1 mRNA, set 1 | BNIP3 mRNA, set 1 | ALDOC mRNA, set 1 | ACSL5 mRNA, set 1 |
| --- | --- | --- | --- | --- | --- |
| TMEM248 | 0.0855 | 0.121 | 0.154 | 0.0329 | 0.123 |
| NT5DC3 | 0.0658 | 0.0844 | 0.191 | 0.00479 | 0.162 |
| GAL3ST4 | 0.122 | 0.248 | 0.36 | -0.00391 | 0.268 |
| PAK1IP1 | 0.0924 | 0.325 | 0.146 | 0.0468 | 0.0922 |
| C19orf12 | 0.207 | 0.594 | 0.324 | 0.0922 | 0.358 |
| AKR7L | 0.132 | 0.55 | 0.396 | 0.00541 | 0.246 |
| SLC26A4 | 0.124 | 0.129 | 0.299 | 0.0241 | 0.134 |
| GFAP | 0.14 | 0.92 | 0.423 | 0.0359 | 0.259 |
| CXCL5 | 0.0841 | 0.173 | 0.171 | 0.0365 | 0.168 |
| FXYD5 | 0.0507 | 0.297 | 0.254 | 0.0218 | 0.167 |
| SH3GLB1 | 0.182 | 0.165 | 0.41 | 0.0285 | 0.168 |
| AGPS | 0.0187 | 0.118 | 0.262 | -0.00816 | 0.129 |
| FAM161A | 0.327 | 0.651 | 0.329 | 0.135 | 0.844 |
| CACHD1 | 0.0852 | 0.0746 | 0.318 | 0.0142 | 0.145 |
| IL7 | 0.107 | 0.118 | 0.302 | 0.0352 | 0.088 |
| MYO10 | 0.164 | 0.109 | 0.319 | 0.012 | 0.264 |
| SCGB1D2 | 0.0768 | 0.345 | 0.215 | 0.0454 | 0.144 |
| PSMD8 | 0.0706 | 0.149 | 0.19 | 0.0172 | 0.154 |
| WIZ | 0.0823 | 0.164 | 0.288 | 0.0124 | 0.13 |
| PYGB | 0.0903 | 0.523 | 0.239 | 0.0284 | 0.267 |
| HDAC4 | 0.121 | 0.272 | 0.291 | 0.0572 | 0.435 |
| ACOT11 | 0.182 | 0.245 | 0.543 | 0.0592 | 0.0969 |
| CYLD | 0.0495 | 0.106 | 0.199 | 0.0218 | 0.206 |
| MIR600HG | 0.278 | 0.626 | 0.481 | 0.0951 | 0.257 |
| ARHGEF10 | 0.136 | 0.159 | 0.393 | 0.0381 | 0.208 |

Part of the list above in another layout:
GFAP
- BNIP3L mRNA, set 1: 0.14
- NDRG1 mRNA, set 1: 0.92
- BNIP3 mRNA, set 1: 0.423
- ALDOC mRNA, set 1: 0.0359
- ACSL5 mRNA, set 1: 0.259

CXCL5
- BNIP3L mRNA, set 1: 0.0841
- NDRG1 mRNA, set 1: 0.173
- BNIP3 mRNA, set 1: 0.171
- ALDOC mRNA, set 1: 0.0365
- ACSL5 mRNA, set 1: 0.168

FXYD5
- BNIP3L mRNA, set 1: 0.0507
- NDRG1 mRNA, set 1: 0.297
- BNIP3 mRNA, set 1: 0.254
- ALDOC mRNA, set 1: 0.0218
- ACSL5 mRNA, set 1: 0.167

SH3GLB1
- BNIP3L mRNA, set 1: 0.182
- NDRG1 mRNA, set 1: 0.165
- BNIP3 mRNA, set 1: 0.41
- ALDOC mRNA, set 1: 0.0285
- ACSL5 mRNA, set 1: 0.168

AGPS
- BNIP3L mRNA, set 1: 0.0187
- NDRG1 mRNA, set 1: 0.118
- BNIP3 mRNA, set 1: 0.262
- ALDOC mRNA, set 1: -0.00816
- ACSL5 mRNA, set 1: 0.129

More results:
| target gene | BNIP3L mRNA, set 1 | NDRG1 mRNA, set 1 | BNIP3 mRNA, set 1 | ALDOC mRNA, set 1 | ACSL5 mRNA, set 1 |
| --- | --- | --- | --- | --- | --- |
| PIP4K2B | 0.062 | 0.151 | 0.451 | 0.0137 | 0.506 |
| AURKA | 0.202 | 0.115 | 0.46 | 0.0559 | 0.206 |
| UCHL3 | 0.0793 | 0.111 | 0.216 | 0.0161 | 0.14 |
| COG4 | 0.0702 | 0.0849 | 0.252 | 0.0273 | 0.0837 |
| CEBPD | 0.0513 | 0.232 | 0.413 | 0.0171 | 0.149 |
| TRPV3 | 0.149 | 0.602 | 0.499 | 0.0358 | 0.268 |
| SPSB3 | 0.158 | 0.101 | 0.289 | 0.0396 | 0.105 |
| CPO | 0.153 | 0.0906 | 0.301 | 0.0225 | 0.181 |
| CPSF1 | 0.133 | 0.431 | 0.345 | 0.0314 | 0.142 |
| CHD5 | 0.172 | 0.57 | 0.494 | 0.0532 | 0.222 |
| CXCL2 | 0.146 | 0.127 | 0.369 | 0.0418 | 0.157 |
| ADARB1 | 0.104 | 0.305 | 0.265 | 0.0248 | 0.125 |
| RRN3P1 | 0.207 | 0.319 | 0.471 | 0.00614 | 0.215 |
| OR2A5 | 0.0943 | 0.27 | 0.287 | 0.0249 | 0.167 |
| SPTSSB | 0.0616 | 0.337 | 0.33 | 0.0248 | 0.164 |
| RPGRIP1L | 0.161 | 0.132 | 0.205 | 0.0235 | 0.228 |
| DHRS2 | 0.208 | 0.246 | 0.263 | 0.0341 | 0.368 |
| SPIRE1 | 0.187 | 0.2 | 0.329 | 0.0244 | 0.256 |
| IL21R | 0.0782 | 0.097 | 0.266 | 0.0188 | 0.0919 |
| C7orf25 | 0.0457 | 0.266 | 0.129 | 0.0504 | 0.282 |
| FAT4 | 0.239 | 0.258 | 0.458 | 0.0527 | 0.175 |
| PCDHGB2 | 0.0633 | 0.123 | 0.226 | 0.0422 | 0.116 |
| ACOT7 | 0.0788 | 0.105 | 0.276 | 0.0523 | 0.131 |
| GOT2 | 0.217 | 0.665 | 0.376 | 0.0699 | 0.0936 |
| CHKA | 0.112 | 0.0402 | 0.29 | 0.013 | 0.349 |
